In the supplement of paper PMC10849652:
The list shows a part of the results.

Chains of the proteins cited; added tags and fusions are not shown. Lines headed by an entry give the natural chain unless they say otherwise; changes in a name come on top.
UniProt P29992, whole entry, looked up: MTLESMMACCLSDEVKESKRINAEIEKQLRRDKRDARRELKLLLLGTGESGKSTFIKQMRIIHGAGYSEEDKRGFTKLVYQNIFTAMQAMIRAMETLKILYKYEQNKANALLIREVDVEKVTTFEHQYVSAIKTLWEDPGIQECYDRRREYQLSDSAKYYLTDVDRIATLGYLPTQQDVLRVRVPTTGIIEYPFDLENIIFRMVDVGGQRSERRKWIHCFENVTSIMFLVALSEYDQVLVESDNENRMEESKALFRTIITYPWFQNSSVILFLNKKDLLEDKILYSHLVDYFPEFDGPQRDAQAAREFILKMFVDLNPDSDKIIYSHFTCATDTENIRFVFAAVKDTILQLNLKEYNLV
UniProt P50148, whole entry, looked up: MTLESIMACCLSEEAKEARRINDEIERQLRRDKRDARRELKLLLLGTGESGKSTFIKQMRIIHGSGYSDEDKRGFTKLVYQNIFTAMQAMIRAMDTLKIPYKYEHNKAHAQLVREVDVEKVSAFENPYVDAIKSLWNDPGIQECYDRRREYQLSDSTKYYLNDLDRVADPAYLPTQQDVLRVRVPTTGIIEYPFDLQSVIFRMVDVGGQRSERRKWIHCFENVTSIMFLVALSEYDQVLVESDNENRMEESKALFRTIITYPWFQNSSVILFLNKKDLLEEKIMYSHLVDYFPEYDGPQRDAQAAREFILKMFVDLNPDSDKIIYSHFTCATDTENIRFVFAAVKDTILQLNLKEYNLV
UniProt Q53EU6: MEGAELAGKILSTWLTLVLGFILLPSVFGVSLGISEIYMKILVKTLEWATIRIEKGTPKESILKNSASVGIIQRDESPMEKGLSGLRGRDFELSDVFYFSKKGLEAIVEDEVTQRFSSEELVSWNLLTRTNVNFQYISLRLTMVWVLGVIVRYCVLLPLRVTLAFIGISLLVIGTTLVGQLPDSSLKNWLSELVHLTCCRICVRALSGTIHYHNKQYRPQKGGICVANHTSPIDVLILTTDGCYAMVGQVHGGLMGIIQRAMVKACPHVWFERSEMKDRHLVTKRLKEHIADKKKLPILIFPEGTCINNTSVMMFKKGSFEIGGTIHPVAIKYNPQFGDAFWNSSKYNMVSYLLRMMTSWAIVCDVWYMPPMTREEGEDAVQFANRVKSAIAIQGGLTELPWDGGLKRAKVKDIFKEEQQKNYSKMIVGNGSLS
UniProt Q03113, whole entry, looked up: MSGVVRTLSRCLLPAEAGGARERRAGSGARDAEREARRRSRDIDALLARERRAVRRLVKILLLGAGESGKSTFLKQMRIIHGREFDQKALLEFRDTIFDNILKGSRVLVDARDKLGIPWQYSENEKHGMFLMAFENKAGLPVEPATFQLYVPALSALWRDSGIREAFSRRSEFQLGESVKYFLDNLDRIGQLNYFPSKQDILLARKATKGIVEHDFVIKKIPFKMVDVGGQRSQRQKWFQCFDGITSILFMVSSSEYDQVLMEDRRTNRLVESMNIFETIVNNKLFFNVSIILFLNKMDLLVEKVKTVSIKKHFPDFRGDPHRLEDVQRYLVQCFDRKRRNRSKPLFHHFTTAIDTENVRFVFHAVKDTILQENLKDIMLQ
UniProt Q3T906: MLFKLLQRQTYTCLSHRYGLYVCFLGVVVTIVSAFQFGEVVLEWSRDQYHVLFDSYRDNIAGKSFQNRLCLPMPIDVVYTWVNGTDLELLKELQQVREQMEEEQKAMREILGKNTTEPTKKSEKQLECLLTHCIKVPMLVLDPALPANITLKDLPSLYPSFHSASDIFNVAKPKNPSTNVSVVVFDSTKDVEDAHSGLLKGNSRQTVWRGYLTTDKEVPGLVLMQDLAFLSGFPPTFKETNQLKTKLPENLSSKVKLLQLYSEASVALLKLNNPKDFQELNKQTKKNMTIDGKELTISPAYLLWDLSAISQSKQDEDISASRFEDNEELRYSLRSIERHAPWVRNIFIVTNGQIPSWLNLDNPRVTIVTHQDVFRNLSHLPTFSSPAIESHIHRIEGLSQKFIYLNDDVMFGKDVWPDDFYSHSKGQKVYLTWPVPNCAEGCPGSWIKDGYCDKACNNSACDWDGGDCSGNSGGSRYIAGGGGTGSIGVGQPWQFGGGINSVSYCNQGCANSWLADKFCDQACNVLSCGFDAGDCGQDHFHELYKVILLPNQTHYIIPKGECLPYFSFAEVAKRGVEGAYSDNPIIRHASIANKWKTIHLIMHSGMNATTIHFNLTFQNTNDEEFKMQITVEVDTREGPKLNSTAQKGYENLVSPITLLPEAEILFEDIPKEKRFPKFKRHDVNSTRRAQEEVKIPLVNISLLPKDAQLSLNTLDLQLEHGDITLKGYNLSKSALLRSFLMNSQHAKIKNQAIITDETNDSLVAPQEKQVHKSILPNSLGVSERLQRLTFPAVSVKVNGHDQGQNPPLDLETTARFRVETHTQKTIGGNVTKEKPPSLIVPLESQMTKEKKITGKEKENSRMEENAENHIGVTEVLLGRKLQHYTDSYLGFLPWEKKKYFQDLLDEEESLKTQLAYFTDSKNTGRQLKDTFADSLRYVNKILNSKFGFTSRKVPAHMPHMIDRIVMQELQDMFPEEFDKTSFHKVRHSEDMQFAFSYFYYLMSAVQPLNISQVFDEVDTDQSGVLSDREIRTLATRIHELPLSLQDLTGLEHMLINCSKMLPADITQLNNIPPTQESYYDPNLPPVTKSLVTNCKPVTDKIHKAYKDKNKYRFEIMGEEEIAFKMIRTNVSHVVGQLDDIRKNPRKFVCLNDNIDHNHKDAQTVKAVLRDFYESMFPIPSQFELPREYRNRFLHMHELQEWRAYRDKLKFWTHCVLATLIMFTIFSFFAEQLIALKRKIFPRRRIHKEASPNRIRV
UniProt Q9Y223: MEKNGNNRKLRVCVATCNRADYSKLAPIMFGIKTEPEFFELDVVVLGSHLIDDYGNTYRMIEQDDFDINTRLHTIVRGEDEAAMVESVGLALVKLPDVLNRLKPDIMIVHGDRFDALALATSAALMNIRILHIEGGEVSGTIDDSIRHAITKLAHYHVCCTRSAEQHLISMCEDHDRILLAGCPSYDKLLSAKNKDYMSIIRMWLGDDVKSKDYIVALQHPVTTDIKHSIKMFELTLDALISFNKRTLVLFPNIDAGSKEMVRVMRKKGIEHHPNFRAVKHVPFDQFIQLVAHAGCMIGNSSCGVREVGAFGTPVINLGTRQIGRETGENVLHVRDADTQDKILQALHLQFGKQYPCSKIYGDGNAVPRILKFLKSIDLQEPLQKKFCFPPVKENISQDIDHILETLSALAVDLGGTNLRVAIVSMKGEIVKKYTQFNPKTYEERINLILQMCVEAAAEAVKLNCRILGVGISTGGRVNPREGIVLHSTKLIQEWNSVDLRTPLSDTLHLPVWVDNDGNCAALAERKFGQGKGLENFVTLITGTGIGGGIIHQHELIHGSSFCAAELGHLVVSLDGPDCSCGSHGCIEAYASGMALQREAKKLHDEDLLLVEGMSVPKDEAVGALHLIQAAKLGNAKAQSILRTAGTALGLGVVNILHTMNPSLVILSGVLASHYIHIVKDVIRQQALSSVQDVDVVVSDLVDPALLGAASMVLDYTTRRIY
UniProt Q5VW38: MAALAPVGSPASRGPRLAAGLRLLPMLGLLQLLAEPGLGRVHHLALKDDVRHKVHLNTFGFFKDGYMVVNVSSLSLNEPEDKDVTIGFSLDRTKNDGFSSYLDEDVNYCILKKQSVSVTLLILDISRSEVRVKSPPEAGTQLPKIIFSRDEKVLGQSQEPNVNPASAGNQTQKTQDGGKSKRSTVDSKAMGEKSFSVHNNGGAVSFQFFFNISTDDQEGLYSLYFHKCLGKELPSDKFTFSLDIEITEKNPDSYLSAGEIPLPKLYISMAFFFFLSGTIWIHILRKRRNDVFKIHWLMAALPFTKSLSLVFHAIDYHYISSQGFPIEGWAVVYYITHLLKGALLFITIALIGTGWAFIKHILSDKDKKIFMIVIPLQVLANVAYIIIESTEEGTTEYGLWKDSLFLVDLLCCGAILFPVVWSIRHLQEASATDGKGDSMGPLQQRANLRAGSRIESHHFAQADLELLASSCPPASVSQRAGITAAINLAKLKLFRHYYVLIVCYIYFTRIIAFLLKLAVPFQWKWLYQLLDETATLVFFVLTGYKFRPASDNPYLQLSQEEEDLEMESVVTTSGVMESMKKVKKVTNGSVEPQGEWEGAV
UniProt Q8N335: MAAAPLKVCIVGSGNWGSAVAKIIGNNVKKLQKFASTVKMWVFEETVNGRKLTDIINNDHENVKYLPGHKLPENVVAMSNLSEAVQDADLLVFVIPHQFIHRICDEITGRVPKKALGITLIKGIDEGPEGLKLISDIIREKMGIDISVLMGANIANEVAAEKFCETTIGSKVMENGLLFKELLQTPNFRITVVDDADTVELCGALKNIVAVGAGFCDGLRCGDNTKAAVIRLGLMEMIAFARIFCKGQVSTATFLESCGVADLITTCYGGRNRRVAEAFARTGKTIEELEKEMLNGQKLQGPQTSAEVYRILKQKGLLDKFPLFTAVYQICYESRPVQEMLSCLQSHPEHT
UniProt Q9BRX5: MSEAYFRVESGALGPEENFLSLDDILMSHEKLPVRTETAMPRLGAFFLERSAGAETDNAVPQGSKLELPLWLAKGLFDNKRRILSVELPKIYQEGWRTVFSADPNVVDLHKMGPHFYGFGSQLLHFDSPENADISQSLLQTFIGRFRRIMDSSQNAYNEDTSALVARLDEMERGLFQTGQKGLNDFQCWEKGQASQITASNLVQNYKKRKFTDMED
UniProt Q14749: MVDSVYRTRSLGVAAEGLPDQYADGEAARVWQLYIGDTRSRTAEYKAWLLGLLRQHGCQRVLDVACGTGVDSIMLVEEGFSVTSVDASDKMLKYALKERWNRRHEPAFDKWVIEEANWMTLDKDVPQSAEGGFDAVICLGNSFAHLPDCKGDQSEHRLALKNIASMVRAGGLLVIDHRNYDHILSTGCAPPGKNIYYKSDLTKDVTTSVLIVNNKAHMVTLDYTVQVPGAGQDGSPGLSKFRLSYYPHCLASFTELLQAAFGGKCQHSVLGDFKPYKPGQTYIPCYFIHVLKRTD
UniProt P36959: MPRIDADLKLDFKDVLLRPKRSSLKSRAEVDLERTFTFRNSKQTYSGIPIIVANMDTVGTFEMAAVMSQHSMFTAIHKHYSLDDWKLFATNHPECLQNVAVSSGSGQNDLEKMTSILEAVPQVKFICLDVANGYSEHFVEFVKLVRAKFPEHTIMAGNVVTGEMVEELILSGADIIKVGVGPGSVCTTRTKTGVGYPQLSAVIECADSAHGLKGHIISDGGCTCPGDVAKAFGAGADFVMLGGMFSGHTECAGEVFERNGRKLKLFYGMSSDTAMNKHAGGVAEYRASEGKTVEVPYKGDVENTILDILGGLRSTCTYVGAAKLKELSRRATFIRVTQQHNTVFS
UniProt Q9HAV7: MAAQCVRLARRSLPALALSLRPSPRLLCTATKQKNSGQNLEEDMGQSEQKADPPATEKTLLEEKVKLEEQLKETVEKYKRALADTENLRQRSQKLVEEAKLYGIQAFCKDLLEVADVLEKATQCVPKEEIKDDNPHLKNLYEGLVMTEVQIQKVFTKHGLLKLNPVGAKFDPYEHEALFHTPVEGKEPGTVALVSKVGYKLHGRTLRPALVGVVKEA
UniProt Q8N954: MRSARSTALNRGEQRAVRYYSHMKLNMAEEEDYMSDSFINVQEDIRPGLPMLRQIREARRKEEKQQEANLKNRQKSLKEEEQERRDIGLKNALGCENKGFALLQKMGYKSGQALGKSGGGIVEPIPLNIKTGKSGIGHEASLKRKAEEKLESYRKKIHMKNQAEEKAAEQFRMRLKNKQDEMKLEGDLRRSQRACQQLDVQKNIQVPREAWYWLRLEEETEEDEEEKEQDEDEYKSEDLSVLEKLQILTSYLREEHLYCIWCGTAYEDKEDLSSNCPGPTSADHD
UniProt Q9NPR9: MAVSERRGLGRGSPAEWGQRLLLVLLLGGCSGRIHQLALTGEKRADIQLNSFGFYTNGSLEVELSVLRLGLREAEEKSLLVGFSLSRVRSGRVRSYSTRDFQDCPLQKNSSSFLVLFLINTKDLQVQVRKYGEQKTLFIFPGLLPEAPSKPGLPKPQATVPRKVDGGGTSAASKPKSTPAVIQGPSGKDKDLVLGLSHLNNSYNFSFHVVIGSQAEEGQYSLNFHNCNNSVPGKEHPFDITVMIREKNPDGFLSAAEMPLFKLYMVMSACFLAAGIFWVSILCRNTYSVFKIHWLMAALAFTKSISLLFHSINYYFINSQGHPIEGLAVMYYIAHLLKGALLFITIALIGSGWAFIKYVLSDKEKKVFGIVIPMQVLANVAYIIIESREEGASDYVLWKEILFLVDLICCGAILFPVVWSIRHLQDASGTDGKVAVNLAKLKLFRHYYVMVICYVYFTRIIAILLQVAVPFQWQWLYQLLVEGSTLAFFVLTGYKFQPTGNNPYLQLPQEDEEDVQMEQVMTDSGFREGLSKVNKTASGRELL
UniProt Q9Y3E0: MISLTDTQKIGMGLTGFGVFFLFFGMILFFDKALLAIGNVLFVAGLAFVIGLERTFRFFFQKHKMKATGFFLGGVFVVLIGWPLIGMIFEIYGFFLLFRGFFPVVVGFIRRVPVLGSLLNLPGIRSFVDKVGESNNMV

How the values were obtained:
Test in all cases: log2 fold change, soluble protein after heating vs DMSO (PISA); higher = thermal stabilisation; K562 cells, 10 uM, 30 min; active = over 0.2 and 3.5 SD of the protein, either way, in both replicates (recomputed)
saracatinib = compound: CN1CCN(CCOc2cc(OC3CCOCC3)c3c(Nc4c(Cl)ccc5c4OCO5)ncnc3c2)CC1 [saracatinib]
Summary of the method: (§1)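 K562 cells at 2×10^6 cells/mL were treated for 30 min with 10 μM compound, and aliquots were heated for 3 min over 48°C-58°C before pooling. Extraction used PBS with 0.5% NP-40 at 4°C, and soluble protein was the supernatant after 21,000xg for 90 min, measured by TMTpro 16plex LC-MS/MS with channel sums equalised. Thermal stability values, relative to control samples and from duplicates, are log2 fold changes.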

sotrastaurin = compound: CN1CCN(c2nc(C3=C(c4c[nH]c5ccccc45)C(=O)NC3=O)c3ccccc3n2)CC1 [sotrastaurin]
Summary of the method: as §1

alvocidib = compound: CN1CC[C@H](c2c(O)cc(O)c3c(=O)cc(-c4ccccc4Cl)oc23)[C@H](O)C1 [alvocidib]
Summary of the method: as §1

Tubastatin A = compound: CN1CCc2c(c3ccccc3n2Cc2ccc(C(=O)NO)cc2)C1 [Tubastatin A]
Summary of the method: as §1

[1] = compound: CNC(=O)C1=CC=CC=C1NC2=NC(=NC=C2Cl)NC3=C(C=C(C=C3)N4CCOCC4)OC
Summary of the method: as §1

defactinib = compound: CNC(=O)c1ccc(Nc2ncc(C(F)(F)F)c(NCc3nccnc3N(C)S(C)(=O)=O)n2)cc1 [defactinib]
Summary of the method: as §1

rucaparib = compound: CNCc1ccc(-c2[nH]c3cc(F)cc4c3c2CCNC4=O)cc1 [rucaparib]
Summary of the method: as §1

[2] = compound: CNc1nc(-c2ccc3c(N)n[nH]c3c2)cc(N2C[C@@H](C(=O)NC3CCCCC3)CC[C@H]2C)n1
Summary of the method: as §1

encorafenib = compound: COC(=O)N[C@@H](C)CNc1nccc(-c2cn(C(C)C)nc2-c2cc(Cl)cc(NS(C)(=O)=O)c2F)n1 [encorafenib]
Summary of the method: as §1

[3] = compound: COC(=O)[C@H](CCSC)NC(=O)C1=C(C=C(C=C1)NC[C@H](CS)N)C2=CC=CC=C2
Summary of the method: as §1

[4] = compound: COC1=CC=C(C=C1)CN2C=CC3=C2C=C(C=C3)C(=O)NO
Summary of the method: as §1

filanesib = compound: CON(C)C(=O)N1N=C(c2cc(F)ccc2F)S[C@@]1(CCCN)c1ccccc1 [filanesib]
Summary of the method: as §1

zotarolimus = compound: CO[C@H]1C[C@@H]2CC[C@@H](C)[C@@](O)(O2)C(=O)C(=O)N2CCCC[C@H]2C(=O)O[C@H]([C@H](C)C[C@@H]2CC[C@H](n3cnnn3)[C@H](OC)C2)CC(=O)[C@H](C)/C=C(\C)[C@@H](O)[C@@H](OC)C(=O)[C@H](C)C[C@H](C)/C=C/C=C/C=C/1C [zotarolimus]
Summary of the method: as §1

idasanutlin = compound: COc1cc(C(=O)O)ccc1NC(=O)[C@@H]1N[C@@H](CC(C)(C)C)[C@](C#N)(c2ccc(Cl)cc2F)[C@H]1c1cccc(Cl)c1F [idasanutlin]
Summary of the method: as §1

alisertib = compound: COc1cc(Nc2ncc3c(n2)-c2ccc(Cl)cc2C(c2c(F)cccc2OC)=NC3)ccc1C(=O)O [alisertib]
Summary of the method: as §1

[5] = compound: COc1cc2nc(-c3cc(F)ccc3O)nc(N[C@@H]3CNC[C@H]3C(C)(C)O)c2cc1OC
Summary of the method: as §1

gefitinib = compound: COc1cc2ncnc(Nc3ccc(F)c(Cl)c3)c2cc1OCCCN1CCOCC1 [gefitinib]
Summary of the method: as §1

[6] = compound: COc1cccc2cc(-c3nc([C@H]4CC[C@H](C(=O)O)CC4)n4ncnc(N)c34)[nH]c12
Summary of the method: as §1

lapatinib = compound: CS(=O)(=O)CCNCc1ccc(-c2ccc3ncnc(Nc4ccc(OCc5cccc(F)c5)c(Cl)c4)c3c2)o1 [lapatinib]
Summary of the method: as §1

pictilisib = compound: CS(=O)(=O)N1CCN(Cc2cc3nc(-c4cccc5[nH]ncc45)nc(N4CCOCC4)c3s2)CC1 [pictilisib]
Summary of the method: as §1

Measured: log2 fold change

GNA11 (UniProt P29992)
inactive: saracatinib 0.001 | sotrastaurin 0 | alvocidib -0.082 | Tubastatin A 0.05 | [1] 0.025 | defactinib -0.031 | rucaparib 0.007 | [2] 0.052 | encorafenib -0.04 | [3] -0.023 | [4] -0.044 | filanesib 0.029 | zotarolimus 0.007 | idasanutlin -0.021 | alisertib -0.044 | [5] 0.126 | gefitinib 0.063 | [6] -0.039 | lapatinib 0.013 | pictilisib 0.101

GNAQ (UniProt P50148)
inactive: saracatinib -0.057 | sotrastaurin -0.027 | alvocidib -0.026 | Tubastatin A 0.027 | [1] -0.04 | defactinib 0.018 | rucaparib 0.003 | [2] 0.034 | encorafenib -0.026 | [3] 0.016 | [4] -0.077 | filanesib 0.095 | zotarolimus 0.006 | idasanutlin -0.055 | alisertib -0.073 | [5] 0.084 | gefitinib 0.091 | [6] 0.086 | lapatinib -0.025 | pictilisib 0.201

GPAT3 (UniProt Q53EU6)
inactive: saracatinib 0.003 | sotrastaurin 0.071 | alvocidib -0.09 | Tubastatin A 0.018 | [1] 0.051 | defactinib -0.09 | rucaparib -0.009 | [2] 0.015 | encorafenib -0.066 | [3] -0.039 | [4] -0.014 | filanesib 0.05 | zotarolimus -0.003 | idasanutlin -0.036 | alisertib -0.097 | [5] 0.161 | gefitinib -0.007 | [6] 0.061 | lapatinib 0.014

Copied from the entries so far (2 entries):
GNA11 (UniProt P29992)
inactive: saracatinib 0.001 | sotrastaurin 0 | alvocidib -0.082 | Tubastatin A 0.05 | [1] 0.025 | defactinib -0.031 | rucaparib 0.007 | [2] 0.052 | encorafenib -0.04 | [3] -0.023 | [4] -0.044 | filanesib 0.029 | zotarolimus 0.007 | idasanutlin -0.021 | alisertib -0.044 | [5] 0.126 | gefitinib 0.063 | [6] -0.039 | lapatinib 0.013 | pictilisib 0.101

GNAQ (UniProt P50148)
inactive: saracatinib -0.057 | sotrastaurin -0.027 | alvocidib -0.026 | Tubastatin A 0.027 | [1] -0.04 | defactinib 0.018 | rucaparib 0.003 | [2] 0.034 | encorafenib -0.026 | [3] 0.016 | [4] -0.077 | filanesib 0.095 | zotarolimus 0.006 | idasanutlin -0.055 | alisertib -0.073 | [5] 0.084 | gefitinib 0.091 | [6] 0.086 | lapatinib -0.025 | pictilisib 0.201

Following part:

GNA12 (UniProt Q03113)
inactive: saracatinib -0.069 | sotrastaurin 0.137 | alvocidib 0.131 | Tubastatin A 0.019 | [1] -0.047 | defactinib 0.003 | rucaparib -0.302 | [2] -0.143 | encorafenib -0.096 | [3] 0.045 | [4] -0.43 | filanesib 0.093 | zotarolimus -0.17 | idasanutlin -0.237 | alisertib -0.402 | [5] 0.406 | gefitinib -0.016 | [6] 0.071 | lapatinib -0.266 | pictilisib 0.148

GNPTAB (UniProt Q3T906)
inactive: saracatinib 0.031 | sotrastaurin 0.022 | alvocidib 0.075 | Tubastatin A -0.024 | [1] -0.058 | defactinib 0.024 | rucaparib -0.099 | [2] 0.036 | encorafenib -0.023 | [3] 0.06 | [4] -0.093 | filanesib 0.08 | zotarolimus 0.001 | idasanutlin 0.006 | alisertib -0.103 | [5] 0.023 | gefitinib 0.049 | [6] -0.013 | lapatinib -0.014 | pictilisib 0.084

GNE isoform 2 (UniProt Q9Y223)
inactive: saracatinib 0.037 | sotrastaurin 0.047 | alvocidib 0.024 | Tubastatin A -0.019 | [1] -0.012 | defactinib 0.027 | rucaparib -0.034 | [2] -0.019 | encorafenib 0.01 | [3] -0.024 | [4] -0.015 | filanesib -0.135 | zotarolimus -0.046 | idasanutlin -0.11 | alisertib -0.019 | [5] -0.023 | gefitinib -0.031 | [6] 0.079 | lapatinib -0.008 | pictilisib -0.015

GPR107 (UniProt Q5VW38)
inactive: saracatinib 0.046 | sotrastaurin 0.033 | alvocidib -0.006 | Tubastatin A -0.011 | [1] -0.001 | defactinib -0.023 | rucaparib -0.019 | [2] -0.026 | encorafenib 0 | [3] 0.035 | [4] -0.006 | filanesib -0.093 | zotarolimus -0.019 | idasanutlin -0.011 | alisertib -0.006 | [5] 0.013 | gefitinib -0.005 | [6] 0.069 | lapatinib 0.002 | pictilisib -0.017

GPD1L (UniProt Q8N335)
inactive: saracatinib -0.037 | sotrastaurin 0.029 | alvocidib -0.052 | Tubastatin A -0.034 | [1] -0.025 | defactinib -0.033 | rucaparib -0.043 | [2] -0.002 | encorafenib 0.002 | [3] -0.008 | [4] -0.006 | filanesib 0.003 | zotarolimus -0.043 | idasanutlin -0.033 | alisertib 0.01 | [5] 0.047 | gefitinib 0.042 | [6] -0.007 | lapatinib 0.015 | pictilisib 0.016

GINS3 (UniProt Q9BRX5)
inactive: saracatinib -0.015 | sotrastaurin 0.003 | alvocidib -0.072 | Tubastatin A -0.04 | [1] -0.065 | defactinib -0.056 | rucaparib -0.034 | [2] 0.028 | encorafenib -0.001 | [3] 0.003 | [4] -0.033 | filanesib -0.026 | zotarolimus 0.033 | idasanutlin -0.065 | alisertib 0.073 | [5] 0.026 | gefitinib 0.017 | [6] -0.018 | lapatinib 0.019 | pictilisib 0.059

GPATCH8 (UniProt Q9UKJ3)
inactive: saracatinib 0.194 | sotrastaurin 0.051 | alvocidib 0.003 | Tubastatin A 0.012 | [1] -0.188 | defactinib -0.022 | rucaparib -0.05 | [2] -0.093 | encorafenib -0.002 | [3] 0.028 | [4] 0.067 | filanesib 0.067 | zotarolimus -0.025 | idasanutlin 0.008 | alisertib -0.099 | [5] 0.146 | gefitinib 0.023 | [6] 0.059 | lapatinib 0.03 | pictilisib 0.003

GNMT (UniProt Q14749)
inactive: saracatinib 0.061 | sotrastaurin -0.087 | alvocidib -0.267 | Tubastatin A 0.054 | [1] 0.196 | defactinib -0.028 | rucaparib -0.088 | [2] -0.055 | encorafenib -0.107 | [3] 0.231 | filanesib -0.034 | zotarolimus 0.136 | idasanutlin -0.331 | alisertib 0.206 | [5] -0.062 | gefitinib -0.077 | [6] 0.022 | lapatinib 0.11 | pictilisib -0.166

GMPR (UniProt P36959)
inactive: saracatinib -0.027 | sotrastaurin 0.035 | alvocidib -0.007 | Tubastatin A -0.01 | [1] -0.012 | defactinib -0.046 | rucaparib -0.014 | [2] 0.005 | encorafenib -0.013 | [3] 0.011 | [4] 0.055 | filanesib -0.042 | zotarolimus 0.024 | idasanutlin -0.047 | alisertib -0.033 | [5] 0.011 | gefitinib -0.012 | [6] 0.048 | lapatinib -0.014 | pictilisib 0.008

GRPEL1 (UniProt Q9HAV7)
inactive: saracatinib -0.018 | sotrastaurin 0.031 | alvocidib -0.043 | Tubastatin A 0.005 | [1] 0.019 | defactinib -0.01 | rucaparib -0.046 | [2] -0.035 | encorafenib -0.02 | [3] 0 | [4] -0.032 | filanesib -0.036 | zotarolimus 0.015 | idasanutlin -0.045 | alisertib -0.04 | [5] 0.014 | gefitinib 0.009 | [6] 0.004 | lapatinib -0.059 | pictilisib 0.068

GPATCH11 (UniProt Q8N954)
inactive: saracatinib -0.025 | sotrastaurin 0.035 | alvocidib -0.003 | Tubastatin A -0.02 | [1] 0 | defactinib 0.062 | rucaparib -0.092 | [2] -0.03 | encorafenib 0.075 | [3] 0.023 | [4] 0.075 | filanesib 0.042 | zotarolimus -0.016 | idasanutlin 0.031 | alisertib -0.036 | [5] 0.08 | gefitinib -0.015 | [6] -0.012 | lapatinib -0.047 | pictilisib 0.029

GPR108 (UniProt Q9NPR9)
inactive: saracatinib -0.005 | sotrastaurin 0.048 | alvocidib -0.025 | Tubastatin A -0.027 | [1] -0.021 | defactinib 0.009 | rucaparib 0.131 | [2] -0.041 | encorafenib -0.05 | [3] 0.136 | filanesib 0.002 | zotarolimus 0.023 | idasanutlin -0.057 | alisertib 0.011 | [5] -0.109 | gefitinib 0.016 | [6] 0.047 | lapatinib 0.053

GOLT1B (UniProt Q9Y3E0)
inactive: saracatinib 0.076 | sotrastaurin 0.064 | alvocidib 0.001 | Tubastatin A -0.084 | [1] 0.002 | defactinib -0.045 | rucaparib -0.076 | [2] -0.012 | encorafenib -0.001 | [3] 0.027 | [4] 0.011 | filanesib -0.001 | zotarolimus -0.029 | idasanutlin -0.014 | alisertib 0.014 | [5] -0.043 | gefitinib -0.026 | [6] 0.09 | lapatinib -0.043 | pictilisib -0.073
